Experimental data taken from PMC6107167.
These are yes or no findings as the source states them, for the method shown.

Target: T1, NHLRC2 NHL repeat β-propeller domain (aa 221-572) (human) (UniProt Q8NBF2)
T1 sequence: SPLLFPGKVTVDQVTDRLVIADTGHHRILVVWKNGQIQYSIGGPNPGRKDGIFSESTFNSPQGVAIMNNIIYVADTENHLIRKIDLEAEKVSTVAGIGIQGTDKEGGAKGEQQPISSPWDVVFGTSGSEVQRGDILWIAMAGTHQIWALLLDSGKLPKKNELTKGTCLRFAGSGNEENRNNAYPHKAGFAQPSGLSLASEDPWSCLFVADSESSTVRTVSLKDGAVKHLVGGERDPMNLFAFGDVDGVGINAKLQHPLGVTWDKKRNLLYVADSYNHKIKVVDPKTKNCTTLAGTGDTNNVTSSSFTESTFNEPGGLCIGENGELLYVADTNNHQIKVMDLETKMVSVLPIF
Assay: SEC-MALS; purified Trx-like domain with linker and β-propeller domain mixed in equimolar ratio, incubated 3 hours at room temperature; Superdex 200 Increase 10/300; 20 mM BisTris pH 6.5, 150 mM NaCl, 2 mM DTT; both purified

How did the binding turn out when “NHLRC2 Trx-like domain with a linker region (human) (domain or fragment)” was run?
The binding was “no binding”.
